Measured values: patent US10022422B2, “Peptidomimetic macrocycles” (priority 2009, dated 2018)
At least one compound was matched to its structure with a doubt left. Where a SMILES comes first, the peptide text is derived from it. Bridges are numbered along the chain shown (N, C = ends). [ ]: non-standard residue; d: D form. R8 = C=CCCCCCC[C@@](C)(N)C(=O)O; S5 = C=CCCC[C@](C)(N)C(=O)O; Nle = CCCC[C@H](N)C(=O)O

Assay: Figure 6
Text: Table printed on a drawing sheet, Figure 6
First reader's note: The head SP-2 is printed shifted to the left of its column of values.

Compound	AUC,all [ng·h/mL]	AUC,inf [ng·h/mL]	Cl [mL/min/kg]	Cmax, obs [ng/mL]	MRT [h]	T1/2 [h]	Vss [L/kg]
CCCC[C@H](NC(C)=O)C(=O)N[C@@H](CC(=O)O)C(=O)N[C@H](C(=O)N[C@@H](CC(N)=O)C(=O)NC(C)(C)C(=O)N[C@H](C(=O)N[C@@H](CC(C)C)C(=O)N[C@@H](CC(C)C)C(=O)N[C@@H](Cc1ccccc1)C(=O)N[C@@]1(C)CCCC=CCCC[C@@](C)(C(=O)N[C@@H](CCC(N)=O)C(N)=O)NC(=O)[C@H](C)NC(=O)[C@H](C(C)C)NC(=O)[C@H](CCCCN)NC1=O)[C@@H](C)O)C(C)C (single isomer, unassigned) [SP-8, Ac-NleDVNAibTLLF$KVA$Q-NH2]	46550	46650	6.42	41947	1.65	1.37	0.105
CCCC[C@H](NC(C)=O)C(=O)N[C@@H](CC(=O)O)C(=O)N[C@H](C(=O)N[C@@H](CC(N)=O)C(=O)N1CCC[C@H]1C(=O)N[C@H](C(=O)N[C@]1(C)CCCCCCC=CCCC[C@@](C)(C(=O)N[C@@H](CCC(N)=O)C(N)=O)NC(=O)[C@H](C)NC(=O)[C@H](C(C)C)NC(=O)[C@H](CCCCN)NC(=O)[C@H](CC(C)C)NC(=O)[C@H](Cc2ccccc2)NC(=O)[C@H](CC(C)C)NC1=O)[C@@H](C)O)C(C)C [SP-16, Ac-NleDVNPT$r8LFLKVA$Q-NH2] (Ac-[Nle]DVNPT[R8]LFLKVA[S5]Q-NH2; staple 7-14)	36795	41705	1.2	30557	2.47	1.63	0.177
